Experimental data from the supplement of paper PMC12819154, “High-throughput peptide-centric local stability assay extends protein–ligand identification to membrane proteins, tissues and bacteria” (Nature Structural & Molecular Biology, 2025).
This is one part of the list. Most entries show no effect beyond the scatter of the controls.

Sequences of proteins named here, by UniProt entry; tags and fusion partners are left off. A change or cut given only in a name is not applied to a line headed by its entry.
UniProt O76075: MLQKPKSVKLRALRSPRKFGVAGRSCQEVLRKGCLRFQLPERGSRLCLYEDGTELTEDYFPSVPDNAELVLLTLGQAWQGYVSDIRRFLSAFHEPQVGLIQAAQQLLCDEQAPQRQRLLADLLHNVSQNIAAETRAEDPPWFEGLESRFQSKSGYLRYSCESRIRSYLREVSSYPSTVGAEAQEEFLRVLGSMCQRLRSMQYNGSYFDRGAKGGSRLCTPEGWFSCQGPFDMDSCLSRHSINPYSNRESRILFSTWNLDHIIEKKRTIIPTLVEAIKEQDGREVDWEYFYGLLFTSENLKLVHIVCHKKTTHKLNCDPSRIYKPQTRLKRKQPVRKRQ
UniProt O95140: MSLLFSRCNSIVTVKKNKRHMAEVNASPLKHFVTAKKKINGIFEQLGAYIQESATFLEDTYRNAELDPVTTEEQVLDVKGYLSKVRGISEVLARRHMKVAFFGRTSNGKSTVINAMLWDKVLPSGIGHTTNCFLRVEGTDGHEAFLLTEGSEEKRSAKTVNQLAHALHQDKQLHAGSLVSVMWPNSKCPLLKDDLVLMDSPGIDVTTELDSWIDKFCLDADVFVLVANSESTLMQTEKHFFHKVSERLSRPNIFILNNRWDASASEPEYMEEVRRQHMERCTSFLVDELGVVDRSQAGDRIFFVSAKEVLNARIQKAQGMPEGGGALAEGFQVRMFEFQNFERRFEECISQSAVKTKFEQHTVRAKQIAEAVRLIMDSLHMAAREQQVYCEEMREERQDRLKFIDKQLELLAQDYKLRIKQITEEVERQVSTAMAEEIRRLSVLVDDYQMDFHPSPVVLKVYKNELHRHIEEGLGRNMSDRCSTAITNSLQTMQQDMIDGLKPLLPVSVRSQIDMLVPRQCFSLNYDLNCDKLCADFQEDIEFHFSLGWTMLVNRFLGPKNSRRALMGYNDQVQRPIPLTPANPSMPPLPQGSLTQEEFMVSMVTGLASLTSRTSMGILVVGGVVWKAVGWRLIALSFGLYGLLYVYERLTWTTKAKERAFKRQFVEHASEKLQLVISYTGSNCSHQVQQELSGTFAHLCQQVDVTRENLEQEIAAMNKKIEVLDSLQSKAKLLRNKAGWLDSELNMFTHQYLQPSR
UniProt P00568: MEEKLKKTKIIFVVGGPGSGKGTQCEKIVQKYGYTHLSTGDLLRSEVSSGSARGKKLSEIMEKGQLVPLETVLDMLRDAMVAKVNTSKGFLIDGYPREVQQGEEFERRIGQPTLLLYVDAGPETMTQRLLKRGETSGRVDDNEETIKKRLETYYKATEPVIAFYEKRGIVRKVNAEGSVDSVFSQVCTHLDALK
UniProt O95168, whole entry: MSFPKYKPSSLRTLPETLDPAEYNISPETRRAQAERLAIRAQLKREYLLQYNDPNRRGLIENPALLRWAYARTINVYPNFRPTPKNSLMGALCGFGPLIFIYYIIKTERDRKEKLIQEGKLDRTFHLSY
UniProt O75920: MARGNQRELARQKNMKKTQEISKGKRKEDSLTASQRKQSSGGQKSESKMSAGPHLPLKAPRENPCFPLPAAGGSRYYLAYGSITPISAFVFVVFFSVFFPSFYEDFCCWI
UniProt O95865: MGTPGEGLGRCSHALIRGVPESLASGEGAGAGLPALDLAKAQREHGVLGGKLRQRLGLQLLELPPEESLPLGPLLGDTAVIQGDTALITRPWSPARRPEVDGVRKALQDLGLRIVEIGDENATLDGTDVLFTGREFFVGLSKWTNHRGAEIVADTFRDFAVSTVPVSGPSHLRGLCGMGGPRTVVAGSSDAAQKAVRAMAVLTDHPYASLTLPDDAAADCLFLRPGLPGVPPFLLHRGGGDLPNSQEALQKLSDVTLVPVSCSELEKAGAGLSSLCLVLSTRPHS
UniProt O94916: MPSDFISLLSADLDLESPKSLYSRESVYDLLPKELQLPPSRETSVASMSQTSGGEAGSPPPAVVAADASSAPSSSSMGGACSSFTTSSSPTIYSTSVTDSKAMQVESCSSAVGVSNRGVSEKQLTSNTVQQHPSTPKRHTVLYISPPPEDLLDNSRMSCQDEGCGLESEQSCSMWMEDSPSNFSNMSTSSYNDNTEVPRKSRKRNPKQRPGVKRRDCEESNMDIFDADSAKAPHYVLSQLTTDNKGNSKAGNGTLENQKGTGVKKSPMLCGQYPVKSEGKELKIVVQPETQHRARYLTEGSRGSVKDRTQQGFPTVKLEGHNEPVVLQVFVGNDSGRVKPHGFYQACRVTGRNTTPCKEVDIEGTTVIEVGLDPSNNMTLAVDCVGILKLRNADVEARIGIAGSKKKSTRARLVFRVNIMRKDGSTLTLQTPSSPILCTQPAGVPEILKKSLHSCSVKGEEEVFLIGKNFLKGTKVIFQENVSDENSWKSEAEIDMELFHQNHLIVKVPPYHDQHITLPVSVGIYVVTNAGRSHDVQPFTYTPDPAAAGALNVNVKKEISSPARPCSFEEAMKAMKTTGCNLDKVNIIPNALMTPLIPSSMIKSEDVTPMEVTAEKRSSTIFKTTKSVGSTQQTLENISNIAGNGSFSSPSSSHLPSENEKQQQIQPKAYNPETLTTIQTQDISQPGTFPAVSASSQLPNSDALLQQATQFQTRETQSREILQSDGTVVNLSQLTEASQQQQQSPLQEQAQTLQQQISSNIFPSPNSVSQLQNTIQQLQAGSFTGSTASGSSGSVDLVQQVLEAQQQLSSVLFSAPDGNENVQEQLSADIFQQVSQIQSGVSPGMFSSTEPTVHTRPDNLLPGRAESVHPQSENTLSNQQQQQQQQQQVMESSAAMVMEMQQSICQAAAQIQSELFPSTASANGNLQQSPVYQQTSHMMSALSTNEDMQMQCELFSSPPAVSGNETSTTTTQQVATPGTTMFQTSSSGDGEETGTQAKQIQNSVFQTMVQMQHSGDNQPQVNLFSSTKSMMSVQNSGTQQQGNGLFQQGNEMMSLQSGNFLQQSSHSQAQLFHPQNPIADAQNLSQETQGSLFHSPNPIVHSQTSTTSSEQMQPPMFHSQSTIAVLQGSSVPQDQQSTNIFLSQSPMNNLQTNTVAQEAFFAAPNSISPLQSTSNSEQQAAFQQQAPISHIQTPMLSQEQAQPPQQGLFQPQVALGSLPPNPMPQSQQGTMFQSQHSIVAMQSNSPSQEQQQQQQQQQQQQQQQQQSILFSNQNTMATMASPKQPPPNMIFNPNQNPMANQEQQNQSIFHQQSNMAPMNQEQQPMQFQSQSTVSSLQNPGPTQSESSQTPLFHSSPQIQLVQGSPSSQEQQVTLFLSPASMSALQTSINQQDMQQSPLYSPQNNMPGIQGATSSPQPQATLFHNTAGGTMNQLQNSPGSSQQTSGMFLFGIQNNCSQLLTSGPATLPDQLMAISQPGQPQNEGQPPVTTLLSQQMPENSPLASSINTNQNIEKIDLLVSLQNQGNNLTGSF
UniProt O75616: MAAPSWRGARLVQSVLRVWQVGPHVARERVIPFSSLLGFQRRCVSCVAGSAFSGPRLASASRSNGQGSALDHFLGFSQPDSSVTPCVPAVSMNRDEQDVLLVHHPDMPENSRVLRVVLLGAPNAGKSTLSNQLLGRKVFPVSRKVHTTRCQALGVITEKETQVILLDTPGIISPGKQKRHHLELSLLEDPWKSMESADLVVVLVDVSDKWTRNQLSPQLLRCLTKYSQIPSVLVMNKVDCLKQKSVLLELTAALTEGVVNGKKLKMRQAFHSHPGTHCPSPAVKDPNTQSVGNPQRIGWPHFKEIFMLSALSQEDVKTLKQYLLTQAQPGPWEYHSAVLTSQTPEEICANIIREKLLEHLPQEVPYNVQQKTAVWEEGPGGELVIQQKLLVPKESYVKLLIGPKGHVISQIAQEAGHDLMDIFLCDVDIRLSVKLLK
UniProt O75791: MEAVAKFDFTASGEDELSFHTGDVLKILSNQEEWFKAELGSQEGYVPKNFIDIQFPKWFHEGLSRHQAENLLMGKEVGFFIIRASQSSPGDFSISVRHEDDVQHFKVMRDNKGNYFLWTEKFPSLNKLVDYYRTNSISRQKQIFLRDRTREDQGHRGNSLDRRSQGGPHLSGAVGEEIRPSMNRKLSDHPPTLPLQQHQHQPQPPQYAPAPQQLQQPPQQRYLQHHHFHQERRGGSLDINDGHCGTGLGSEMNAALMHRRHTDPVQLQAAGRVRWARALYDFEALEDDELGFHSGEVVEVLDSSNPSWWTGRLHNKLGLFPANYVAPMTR
UniProt O75534: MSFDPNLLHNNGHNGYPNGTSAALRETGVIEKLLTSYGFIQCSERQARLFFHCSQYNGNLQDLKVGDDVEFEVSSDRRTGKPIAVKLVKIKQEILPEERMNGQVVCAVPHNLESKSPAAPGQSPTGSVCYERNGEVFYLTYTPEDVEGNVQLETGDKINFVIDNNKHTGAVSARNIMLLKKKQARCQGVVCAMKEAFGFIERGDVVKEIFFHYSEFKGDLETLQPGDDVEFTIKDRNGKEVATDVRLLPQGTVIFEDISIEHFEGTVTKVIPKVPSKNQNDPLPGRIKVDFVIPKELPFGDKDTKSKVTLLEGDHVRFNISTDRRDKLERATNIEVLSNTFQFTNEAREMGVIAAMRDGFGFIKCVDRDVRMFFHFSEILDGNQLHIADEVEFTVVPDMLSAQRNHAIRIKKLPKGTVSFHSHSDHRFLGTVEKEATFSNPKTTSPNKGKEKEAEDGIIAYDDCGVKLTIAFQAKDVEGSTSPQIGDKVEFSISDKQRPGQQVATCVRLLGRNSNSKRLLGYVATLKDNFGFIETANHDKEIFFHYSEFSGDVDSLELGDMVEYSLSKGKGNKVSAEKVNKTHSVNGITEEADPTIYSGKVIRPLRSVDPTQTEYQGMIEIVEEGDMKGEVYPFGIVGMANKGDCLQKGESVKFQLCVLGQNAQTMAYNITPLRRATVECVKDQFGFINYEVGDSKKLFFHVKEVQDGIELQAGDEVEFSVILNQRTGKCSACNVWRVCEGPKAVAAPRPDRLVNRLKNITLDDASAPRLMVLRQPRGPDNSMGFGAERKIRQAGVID
UniProt O95081: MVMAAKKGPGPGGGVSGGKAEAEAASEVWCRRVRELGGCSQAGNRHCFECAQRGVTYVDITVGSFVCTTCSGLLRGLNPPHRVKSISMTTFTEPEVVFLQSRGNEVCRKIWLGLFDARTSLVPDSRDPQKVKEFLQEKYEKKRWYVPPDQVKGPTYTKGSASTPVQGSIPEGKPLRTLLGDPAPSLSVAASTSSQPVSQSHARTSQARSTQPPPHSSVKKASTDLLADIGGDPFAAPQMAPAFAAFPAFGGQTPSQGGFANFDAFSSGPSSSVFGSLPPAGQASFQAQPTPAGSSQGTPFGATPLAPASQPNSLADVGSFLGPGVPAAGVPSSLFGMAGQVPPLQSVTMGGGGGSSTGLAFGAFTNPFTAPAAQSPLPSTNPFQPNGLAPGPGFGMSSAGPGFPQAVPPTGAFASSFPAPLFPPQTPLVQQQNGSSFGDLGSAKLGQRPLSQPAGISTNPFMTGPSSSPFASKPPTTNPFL
UniProt O75843: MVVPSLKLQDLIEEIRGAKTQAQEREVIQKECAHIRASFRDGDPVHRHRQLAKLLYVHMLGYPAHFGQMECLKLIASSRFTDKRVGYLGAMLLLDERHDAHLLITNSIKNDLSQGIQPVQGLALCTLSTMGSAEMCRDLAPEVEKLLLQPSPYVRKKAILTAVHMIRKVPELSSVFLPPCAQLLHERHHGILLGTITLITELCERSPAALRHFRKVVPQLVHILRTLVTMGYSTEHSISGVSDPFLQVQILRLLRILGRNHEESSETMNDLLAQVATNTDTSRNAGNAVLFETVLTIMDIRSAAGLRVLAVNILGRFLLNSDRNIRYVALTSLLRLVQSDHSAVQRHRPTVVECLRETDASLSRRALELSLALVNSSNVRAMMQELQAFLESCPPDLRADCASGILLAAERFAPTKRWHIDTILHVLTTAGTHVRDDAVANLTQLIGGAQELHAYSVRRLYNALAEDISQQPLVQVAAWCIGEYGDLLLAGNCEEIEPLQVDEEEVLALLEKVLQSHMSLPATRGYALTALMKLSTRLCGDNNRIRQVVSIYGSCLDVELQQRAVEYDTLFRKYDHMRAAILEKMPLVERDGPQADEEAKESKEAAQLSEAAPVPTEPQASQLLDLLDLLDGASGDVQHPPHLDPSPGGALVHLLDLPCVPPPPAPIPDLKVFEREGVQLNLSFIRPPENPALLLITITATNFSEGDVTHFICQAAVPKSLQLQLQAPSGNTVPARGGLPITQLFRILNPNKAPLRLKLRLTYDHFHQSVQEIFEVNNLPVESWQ
UniProt O75792: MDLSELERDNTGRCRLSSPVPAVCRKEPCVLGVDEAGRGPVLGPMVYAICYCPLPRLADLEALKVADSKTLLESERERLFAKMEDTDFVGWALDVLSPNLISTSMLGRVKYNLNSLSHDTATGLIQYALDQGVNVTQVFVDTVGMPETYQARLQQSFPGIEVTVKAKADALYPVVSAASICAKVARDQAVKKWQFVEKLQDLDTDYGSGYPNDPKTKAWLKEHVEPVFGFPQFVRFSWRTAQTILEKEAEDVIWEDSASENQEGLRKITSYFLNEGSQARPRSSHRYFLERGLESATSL

Compound: Cc1nc(Nc2ncc(C(=O)Nc3c(C)cccc3Cl)s2)cc(N2CCN(CCO)CC2)n1 [dasatinib]
Assay: log2 fold change of tryptic peptide abundance, ligand vs vehicle (limited proteolysis) (log2 ratio); higher = more trypsin-susceptible (destabilized)
Conditions: ligand concentration: 5 uM; sample: K562 cleared lysate

| Target | log2 fold change |
| --- | --- |
| YIF1A (peptide sequence: AYHSGYGAHGSK, peptide start residue: 2) (UniProt O95070) | -0.0271 |
| DFFB (peptide sequence: HSINPYSNR, peptide start residue: 239) (UniProt O76075) | -0.0498 |
| PAPSS2 (peptide sequence: RGQVVGTR, peptide start residue: 40) (UniProt O95340) | 0.195 |
| CEP152 (peptide sequence: NEEVPVVIR, peptide start residue: 942) (UniProt O94986) | -0.301 |
| TOP3B (peptide sequence: TVLMVAEKPSLAQSIAK, peptide start residue: 3) (UniProt O95985) | -0.244 |
| MFN2 (peptide sequence: LSRPNIFILNNR, peptide start residue: 248) (UniProt O95140) | 0.269 |
| PARN (peptide sequence: KLIYQTLSWKYPK, peptide start residue: 211) (UniProt O95453) | -0.243 |
| ZBED1 (peptide sequence: SLESSQTDLK, peptide start residue: 5) (UniProt O96006) | 0.294 |
| UniProt O95163 (peptide sequence: YCLSILTSHVKK, peptide start residue: 835) | -0.565 |
| EIF3J (peptide sequence: KRQEEIK, peptide start residue: 90) (UniProt O75822) | -0.135 |
| TIPRL (peptide sequence: GTLLGESLKLK, peptide start residue: 118) (UniProt O75663) | -1.07 |
| AK1 (peptide sequence: VDDNEETIKKR, peptide start residue: 139) (UniProt P00568) | -0.225 |
| MBD4 (peptide sequence: MAIPVLWK, peptide start residue: 473) (UniProt O95243) | -0.523 |
| NDUFB4 (peptide sequence: TINVYPNFRPTPK, peptide start residue: 73) (UniProt O95168) | -0.517 |
| UniProt O75920 (peptide sequence: RKEDSLTASQR, peptide start residue: 26) | 0.187 |
| UniProt O77932 (peptide sequence: GAEKTEVAEPR, peptide start residue: 9) | 0.0293 |
| DDAH2 (peptide sequence: TVVAGSSDAAQK, peptide start residue: 183) (UniProt O95865) | -0.193 |
| NFAT5 (peptide sequence: APHYVLSQLTTDNKGNSK, peptide start residue: 232) (UniProt O94916) | 0.303 |
| UniProt O94903 (peptide sequence: HGLPPSETIAIVEHINAK, peptide start residue: 154) | 0.176 |

| Target | log2 fold change |
| --- | --- |
| MLYCD (peptide sequence: EAAVLLQAEDR, peptide start residue: 118) (UniProt O95822) | -0.607 |
| SNUPN (peptide sequence: FYWMHSKLPEEEGLGEK, peptide start residue: 205) (UniProt O95149) | -0.653 |
| FGFR1OP (peptide sequence: AAVFLALEEQEKVENK, peptide start residue: 39) (UniProt O95684) | 0.128 |
| ERAL1 (peptide sequence: IGWPHFK, peptide start residue: 297) (UniProt O75616) | 0.34 |
| SNX4 (peptide sequence: YSEFELLR, peptide start residue: 107) (UniProt O95219) | -0.116 |
| GRAP2 (peptide sequence: RSQGGPHLSGAVGEEIRPSMNR, peptide start residue: 163) (UniProt O75791) | -0.188 |
| SOGA1 (peptide sequence: KPEPLSPASYHQPEGVAR, peptide start residue: 1315) (UniProt O94964) | -0.719 |
| ALDH1A1 (peptide sequence: LECGGGPWGNK, peptide start residue: 368) (UniProt P00352) | 0.189 |
| PRKRA (peptide sequence: HRAEAPPLEREDSGTFSLGK, peptide start residue: 6) (UniProt O75569) | -0.157 |
| UniProt O95104 (peptide sequence: GNAESGDSVK, peptide start residue: 794) | -0.122 |
| CSDE1 (peptide sequence: VNKTHSVNGITEEADPTIYSGK, peptide start residue: 579) (UniProt O75534) | 0.38 |
| RAB3D (peptide sequence: TITTAYYR, peptide start residue: 72) (UniProt O95716) | -0.128 |
| STAM2 (peptide sequence: HGEIIIVLDDSDANWWKGENHR, peptide start residue: 225) (UniProt O75886) | 0.131 |
| AGFG2 (peptide sequence: STQPPPHSSVK, peptide start residue: 209) (UniProt O95081) | 0.19 |
| AP1G2 (peptide sequence: GYALTALMK, peptide start residue: 525) (UniProt O75843) | 0.359 |
| RNASEH2A (peptide sequence: TAQTILEK, peptide start residue: 240) (UniProt O75792) | 0.263 |
| PGK1 (peptide sequence: NNQITNNQR, peptide start residue: 31) (UniProt P00558) | -0.0906 |
| RHOBTB3 (peptide sequence: NLIGGADIIVIK, peptide start residue: 88) (UniProt O94955) | 0.215 |

Rewritten as labelled records: part of the list above
RNASEH2A (peptide sequence: TAQTILEK, peptide start residue: 240) (UniProt O75792)
  log2 fold change: 0.263
PGK1 (peptide sequence: NNQITNNQR, peptide start residue: 31) (UniProt P00558)
  log2 fold change: -0.0906
RHOBTB3 (peptide sequence: NLIGGADIIVIK, peptide start residue: 88) (UniProt O94955)
  log2 fold change: 0.215
